Results are given in words; binding and its absence hold for the method and conditions named. Binding seen in cells or lysates may run through a third protein. Binding calls can cover weak binding; strength is not graded here.
Legend:
[1] = target: N-terminally FLAG fused CIC-S (human) (UniProt Q96RK0); assay: co-IP; FLAG-tagged CIC (bait) and V5 tagged ACLY (prey) co-expressed in HEK293 cells; IP with anti-FLAG antibody, blots with anti-FLAG and anti-V5
[2] = target: endogenous Capicua short isoform (CIC-S) (human (endogenous in HEK)) (UniProt Q96RK0); assay: co-IP; endogenous proteins, cytosolic (nucleus-free and mitochondria-free) HEK cell fraction; IP with anti-CIC antibody and blot for ACLY, and reciprocal IP with anti-ACLY antibody and blot for CIC-S; rabbit IgG as control
[3] = target: ATP-citrate synthase (ATP citrate-lyase), endogenous (human) (UniProt P53396); assay: as above

Chains of the proteins cited; added tags and fusions are not shown. Lines headed by an entry give the natural chain unless they say otherwise; changes in a name come on top.
UniProt Q96RK0: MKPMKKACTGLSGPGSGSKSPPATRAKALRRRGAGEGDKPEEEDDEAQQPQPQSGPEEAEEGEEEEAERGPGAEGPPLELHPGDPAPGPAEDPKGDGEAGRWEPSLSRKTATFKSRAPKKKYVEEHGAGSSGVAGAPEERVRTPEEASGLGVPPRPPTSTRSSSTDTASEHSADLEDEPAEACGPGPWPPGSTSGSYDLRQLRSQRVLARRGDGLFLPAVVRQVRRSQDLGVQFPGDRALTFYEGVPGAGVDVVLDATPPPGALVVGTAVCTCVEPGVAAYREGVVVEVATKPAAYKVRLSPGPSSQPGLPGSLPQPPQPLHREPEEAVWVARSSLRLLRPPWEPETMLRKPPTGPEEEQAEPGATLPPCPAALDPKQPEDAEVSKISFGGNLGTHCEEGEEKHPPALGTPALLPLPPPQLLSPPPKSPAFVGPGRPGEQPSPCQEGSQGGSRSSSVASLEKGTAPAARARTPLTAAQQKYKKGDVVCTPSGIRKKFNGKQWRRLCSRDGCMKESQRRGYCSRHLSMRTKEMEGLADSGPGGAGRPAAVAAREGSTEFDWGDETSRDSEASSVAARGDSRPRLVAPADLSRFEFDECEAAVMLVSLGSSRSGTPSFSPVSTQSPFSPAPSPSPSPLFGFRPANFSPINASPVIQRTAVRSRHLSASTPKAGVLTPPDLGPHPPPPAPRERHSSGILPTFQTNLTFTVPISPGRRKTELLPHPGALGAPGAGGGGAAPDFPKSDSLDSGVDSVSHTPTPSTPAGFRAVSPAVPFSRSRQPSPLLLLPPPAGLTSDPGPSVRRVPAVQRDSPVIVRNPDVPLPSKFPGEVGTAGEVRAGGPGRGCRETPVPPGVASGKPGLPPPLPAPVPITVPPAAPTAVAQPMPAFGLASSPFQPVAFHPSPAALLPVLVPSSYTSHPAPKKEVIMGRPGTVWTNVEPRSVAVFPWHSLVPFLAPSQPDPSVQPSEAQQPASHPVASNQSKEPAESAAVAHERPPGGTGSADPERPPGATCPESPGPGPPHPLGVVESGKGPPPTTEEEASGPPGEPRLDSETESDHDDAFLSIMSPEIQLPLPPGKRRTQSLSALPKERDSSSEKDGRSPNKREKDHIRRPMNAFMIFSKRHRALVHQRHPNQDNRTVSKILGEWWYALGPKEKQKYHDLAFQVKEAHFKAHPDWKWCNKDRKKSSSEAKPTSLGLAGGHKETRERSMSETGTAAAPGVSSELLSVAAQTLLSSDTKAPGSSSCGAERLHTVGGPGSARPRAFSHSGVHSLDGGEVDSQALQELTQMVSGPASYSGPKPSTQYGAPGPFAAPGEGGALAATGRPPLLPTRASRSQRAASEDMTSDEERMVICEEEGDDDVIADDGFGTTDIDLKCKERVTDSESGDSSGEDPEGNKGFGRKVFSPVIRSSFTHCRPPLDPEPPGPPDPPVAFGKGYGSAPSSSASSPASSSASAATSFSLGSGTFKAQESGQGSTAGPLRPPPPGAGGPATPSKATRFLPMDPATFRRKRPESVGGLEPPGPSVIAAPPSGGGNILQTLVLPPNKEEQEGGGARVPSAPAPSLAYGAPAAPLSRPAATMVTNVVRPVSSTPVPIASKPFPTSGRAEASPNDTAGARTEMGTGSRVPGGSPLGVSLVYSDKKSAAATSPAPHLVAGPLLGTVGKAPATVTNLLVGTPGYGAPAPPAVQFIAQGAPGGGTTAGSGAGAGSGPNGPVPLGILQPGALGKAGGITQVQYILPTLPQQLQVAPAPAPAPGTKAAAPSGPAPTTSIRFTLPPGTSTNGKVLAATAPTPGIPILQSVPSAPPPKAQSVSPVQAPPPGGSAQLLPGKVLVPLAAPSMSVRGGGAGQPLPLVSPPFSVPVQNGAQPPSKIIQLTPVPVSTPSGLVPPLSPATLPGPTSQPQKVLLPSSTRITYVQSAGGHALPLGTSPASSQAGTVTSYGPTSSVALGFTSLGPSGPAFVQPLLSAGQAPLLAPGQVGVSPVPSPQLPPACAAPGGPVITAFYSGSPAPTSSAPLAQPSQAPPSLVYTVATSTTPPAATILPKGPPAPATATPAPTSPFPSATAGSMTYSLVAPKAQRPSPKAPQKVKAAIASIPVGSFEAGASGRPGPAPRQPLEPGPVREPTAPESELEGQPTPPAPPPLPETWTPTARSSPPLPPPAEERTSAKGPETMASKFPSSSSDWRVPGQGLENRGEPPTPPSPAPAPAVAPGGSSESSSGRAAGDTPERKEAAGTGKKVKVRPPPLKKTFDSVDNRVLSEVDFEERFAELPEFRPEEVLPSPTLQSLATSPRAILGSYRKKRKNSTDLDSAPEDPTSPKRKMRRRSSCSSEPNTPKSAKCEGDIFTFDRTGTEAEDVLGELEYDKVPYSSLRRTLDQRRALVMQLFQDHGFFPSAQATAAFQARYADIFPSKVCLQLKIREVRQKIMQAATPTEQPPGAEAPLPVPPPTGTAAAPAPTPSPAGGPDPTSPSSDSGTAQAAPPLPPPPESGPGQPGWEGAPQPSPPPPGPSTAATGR
UniProt P53396: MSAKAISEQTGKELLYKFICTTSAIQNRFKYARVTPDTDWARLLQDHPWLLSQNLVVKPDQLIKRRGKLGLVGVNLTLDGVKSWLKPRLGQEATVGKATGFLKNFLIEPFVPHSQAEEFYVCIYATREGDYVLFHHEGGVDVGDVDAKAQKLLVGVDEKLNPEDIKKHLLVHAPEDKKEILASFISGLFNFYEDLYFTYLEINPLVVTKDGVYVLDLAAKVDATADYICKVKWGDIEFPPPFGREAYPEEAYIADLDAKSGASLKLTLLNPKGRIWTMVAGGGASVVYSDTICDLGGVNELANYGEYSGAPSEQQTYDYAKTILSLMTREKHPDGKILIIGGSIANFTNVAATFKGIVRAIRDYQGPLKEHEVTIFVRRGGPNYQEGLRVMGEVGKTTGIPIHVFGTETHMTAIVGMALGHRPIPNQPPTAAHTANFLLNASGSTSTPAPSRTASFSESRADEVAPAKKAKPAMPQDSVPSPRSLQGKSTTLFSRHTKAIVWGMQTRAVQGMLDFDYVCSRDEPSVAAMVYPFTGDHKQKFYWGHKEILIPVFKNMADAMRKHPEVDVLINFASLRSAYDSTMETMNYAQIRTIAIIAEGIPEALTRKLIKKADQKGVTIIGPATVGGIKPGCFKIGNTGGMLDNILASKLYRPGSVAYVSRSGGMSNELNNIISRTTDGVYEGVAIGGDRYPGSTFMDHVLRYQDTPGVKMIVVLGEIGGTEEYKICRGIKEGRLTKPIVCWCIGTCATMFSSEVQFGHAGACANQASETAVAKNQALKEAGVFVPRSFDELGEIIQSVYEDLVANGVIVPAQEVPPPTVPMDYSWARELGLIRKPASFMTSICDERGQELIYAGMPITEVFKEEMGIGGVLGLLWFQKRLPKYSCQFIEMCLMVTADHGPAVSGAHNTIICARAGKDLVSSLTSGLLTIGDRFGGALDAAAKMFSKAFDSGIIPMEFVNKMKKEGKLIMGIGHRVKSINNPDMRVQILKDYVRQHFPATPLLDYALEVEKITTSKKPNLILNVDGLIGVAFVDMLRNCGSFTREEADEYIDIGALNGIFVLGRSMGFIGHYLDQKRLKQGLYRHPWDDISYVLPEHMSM

“ACLY fused to a C-terminal V5 epitope (from UniProt P53396 1-1101) (enzyme)” was tested, and the binding [1] was “binds”.
“ATP-citrate synthase (ATP citrate-lyase), endogenous (from UniProt P53396 1-1101) (enzyme)” was tested, and the binding [2] was “binds”.
For “endogenous Capicua short isoform (CIC-S) (from UniProt Q96RK0-2)”, the binding [3] was “binds”.
